Measurements: patent publication US20230404098A1
Results are given in words; binding and its absence hold for the method and conditions named. Some results given as binding are weak or reduced against the parent protein; the word gives no strength.

T1: Hypophosphorylated (~2-3 phosphates per molecule) version of bovine alpha-casein (Sigma) (bovine) (UniProt P02662)
T1 sequence (~2-3 phosphates per molecule, looked up): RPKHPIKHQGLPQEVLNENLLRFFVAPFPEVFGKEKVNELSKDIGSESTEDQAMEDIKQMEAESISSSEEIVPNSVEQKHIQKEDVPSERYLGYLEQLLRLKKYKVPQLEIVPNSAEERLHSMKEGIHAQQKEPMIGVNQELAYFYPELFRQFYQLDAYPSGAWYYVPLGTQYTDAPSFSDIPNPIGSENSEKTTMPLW

T2: Native bovine alpha-casein purified from cow's milk (Sigma Aldrich) (bovine (cow)) (UniProt P02662)
T2 sequence (native phosphorylation (sites not printed), looked up): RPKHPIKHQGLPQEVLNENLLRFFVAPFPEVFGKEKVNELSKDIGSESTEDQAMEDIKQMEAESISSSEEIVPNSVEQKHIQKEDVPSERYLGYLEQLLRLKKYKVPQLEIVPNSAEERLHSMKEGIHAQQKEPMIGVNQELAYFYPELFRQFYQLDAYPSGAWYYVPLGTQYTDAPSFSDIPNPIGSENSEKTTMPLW

B1: Native bovine alpha-casein purified from cow's milk (Sigma Aldrich) (protein, bovine (cow), UniProt P02662 16-214, looked up)
chain: RPKHPIKHQGLPQEVLNENLLRFFVAPFPEVFGKEKVNELSKDIGSESTEDQAMEDIKQMEAESISSSEEIVPNSVEQKHIQKEDVPSERYLGYLEQLLRLKKYKVPQLEIVPNSAEERLHSMKEGIHAQQKEPMIGVNQELAYFYPELFRQFYQLDAYPSGAWYYVPLGTQYTDAPSFSDIPNPIGSENSEKTTMPLW
modifications: native phosphorylation (sites not given)
B2: Recombinantly-produced bovine (cow) alpha-S1-casein (lacking PTMs) with 23 amino acid residues truncated from the N-terminal (F24 alpha-S1-casein) (protein)
chain: FVAPFPEVFGKEKVNELSKDIGSESTEDQAMEDIKQMEAESISSSEEIVPNSVEQKHIQKEDVPSERYLGYLEQLLRLKKYKVPQLEIVPNSAEERLHSMKEGIHAQQKEPMIGVNQELAYFYPELFRQFYQLDAYPSGAWYYVPLGTQYTDAPSFSDIPNPIGSENSGKTTMPLW

How the values were obtained:
[1] = target: T1, Hypophosphorylated (~2-3 phosphates per molecule) version of bovine alpha-casein (Sigma) (bovine); experiment: co-assembly into casein micelles (alpha + kappa casein with phosphate, citrate, calcium), DLS particle size, FIG. 1
[2] = target: T2, Native bovine alpha-casein purified from cow's milk (Sigma Aldrich) (bovine (cow)); experiment: as above
[3] = target: T2, Native bovine alpha-casein purified from cow's milk (Sigma Aldrich) (bovine (cow)); experiment: co-assembly into casein micelles (alpha + kappa casein with phosphate, citrate, calcium), DLS particle size, FIG. 3
[4] = target: Bovine kappa casein purified from cow's milk (Sigma Aldrich) (bovine (cow)) (UniProt P02668); experiment: co-assembly into casein micelles (alpha + kappa casein with phosphate, citrate, calcium), DLS particle size, FIG. 5
[5] = target: Bovine kappa casein purified from cow's milk (Sigma Aldrich) (bovine (cow)) (UniProt P02668); experiment: co-assembly into casein micelles (alpha + kappa casein with phosphate, citrate, calcium), DLS particle size, FIG. 8

Molecule | binding [1] | binding [2] | binding [3] | binding [4] | binding [5]
Bovine kappa casein purified from cow's milk (Sigma Aldrich) (from UniProt P02668 22-190) | binds | binds | binds | – | –
B1 | – | – | – | binds | binds
B2 | – | – | – | – | binds
